The results in this text go back to publication PMC6593165.

Results are given in words; binding and its absence hold for the method and conditions named. A result given as binding can be weak or reduced; the word gives no strength. Where a sequence is shown, tags or fusion partners need not be part of it. For some assays here: Binding seen in cells or lysates may run through a third protein.

The target in one experiment is GST-WRKY72 (rice). Kind of experiment: pull-down; GST pull-down in vitro with proteins expressed and purified in E. coli; immunoblotting with anti-GST and anti-His antibodies; both purified.
The target in another experiment is WRKY72-FLAG (rice). In words: co-IP; proteins extracted from infiltrated Nicotiana benthamiana leaves; precipitates immunoblotted with GFP and FLAG antibodies.

B1: His-SAPK10 (enzyme, UniProt Q75H77 1-362)
chain: MDRAALTVGPGMDMPIMHDGDRYELVRDIGSGNFGVARLMRSRADGQLVAVKYIERGDKIDENVQREIINHRSLRHPNIIRFKEVILTPTHLAIVMEYASGGELFERICNAGRFSEDEARFFFQQLISGVSYCHSMQVCHRDLKLENTLLDGSTAPRLKICDFGYSKSSVLHSQPKSTVGTPAYIAPEVLLKKEYDGKIADVWSCGVTLYVMLVGAYPFEDPDEPKNFRKTIQRILGVQYSIPDYVHISPECRDLIARIFVANPATRISIPEIRNHPWFLKNLPADLMDDSKMSSQYEEPEQPMQSMDEIMQILAEATIPAAGSGGINQFLNDGLDLDDDMEDLDSDPDLDVESSGEIVYAM
B1: the binding result with GST-WRKY72 (rice) is reported as “binds”.

B2: SAPK10-GFP (enzyme, UniProt Q75H77 1-362)
chain: B1 chain
Turning to B2, the binding entry with WRKY72-FLAG (rice) is listed as “binds”.
